Assay results as given in article PMC13245899.
No constants are given. Whether binding was seen depends on the method and setting. In cells and extracts the contact can be indirect. Tags and fused reporters may be left off the sequences shown.

By UniProt entry, the sequences of proteins in these tests, tags left out. Where a name states a change or a piece, a line headed by the entry shows the natural chain unless it says otherwise.
UniProt Q27268: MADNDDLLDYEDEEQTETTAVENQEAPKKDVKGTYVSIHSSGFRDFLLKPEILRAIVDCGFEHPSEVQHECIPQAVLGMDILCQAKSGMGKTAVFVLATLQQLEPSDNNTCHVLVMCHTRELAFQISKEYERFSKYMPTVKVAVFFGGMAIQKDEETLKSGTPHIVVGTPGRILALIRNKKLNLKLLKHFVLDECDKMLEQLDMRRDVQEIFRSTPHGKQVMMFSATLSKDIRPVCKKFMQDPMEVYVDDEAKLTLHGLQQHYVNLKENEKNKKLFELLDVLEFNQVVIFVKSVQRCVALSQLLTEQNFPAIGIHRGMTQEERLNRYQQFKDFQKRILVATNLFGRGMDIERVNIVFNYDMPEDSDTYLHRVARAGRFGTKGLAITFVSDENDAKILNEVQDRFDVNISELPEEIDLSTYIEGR

Columns and labels:
[1] = molecular target: wild-type UAP56::GFP (Drosophila) (UniProt Q27268); test: co-IP; lysates with UAP56::GFP variants and tagged THOC7 precipitated with mouse anti-GFP antibodies on protein A sepharose for 2 h; blotted for THOC7
[2] = molecular target: UAP56::GFP E194Q (Drosophila) (UniProt Q27268); test: as above

binding [1]: no binding | binding [2]: no binding
B1: tagged THOC7 (protein, UniProt Q8IRJ8 1-288)
chain: MSEQCQLRPHSDTLVRKLVEMNDEEIIKQRLLIDGDGTGEDRRIVVLLKQFLKWASDSLDSNPIMYDRLMAQFAQCKLTALKNVQTLQMIAGERDNYTQLVEHHEESIVLAKAEIESSKKELITAKQIRKNKMEYDLLASLIQDQPDRSETQRHIETIRREIDDLVQKKLKMERKFQKRRNDFTLLMYTIHELEQQLDQDSSSSASSSSSDCDARSEPDLDDNGIMEVSDEDDDLNNSTPTKFDGARGEPKYHSVSTEDSKAMSVEEDTVLELSIDKDEHDVDVAVAN
